Measured values published in patent US11427783B2, “Perfuming compositions” (Firmenich SA, priority 2016, dated 2022).

Assay: Volatility of perfuming compounds in air
Format: physicochemical

## CCCCCCCC1CCC(=O)O1 (racemic) [(+−)-5-heptyldihydro-2(3H)-furanone]
  Volatility (μg/l air): 3.67 μg/l air
